Data reported in paper PMC5103190.
Results are given in words; binding and its absence hold for the method and conditions named. Binding seen in cells or lysates may run through a third protein. Some binding calls cover weakened binding; strength is not graded here.

Protein sequences, listed by entry. Tags and fused reporters are not part of them.
UniProt P19793: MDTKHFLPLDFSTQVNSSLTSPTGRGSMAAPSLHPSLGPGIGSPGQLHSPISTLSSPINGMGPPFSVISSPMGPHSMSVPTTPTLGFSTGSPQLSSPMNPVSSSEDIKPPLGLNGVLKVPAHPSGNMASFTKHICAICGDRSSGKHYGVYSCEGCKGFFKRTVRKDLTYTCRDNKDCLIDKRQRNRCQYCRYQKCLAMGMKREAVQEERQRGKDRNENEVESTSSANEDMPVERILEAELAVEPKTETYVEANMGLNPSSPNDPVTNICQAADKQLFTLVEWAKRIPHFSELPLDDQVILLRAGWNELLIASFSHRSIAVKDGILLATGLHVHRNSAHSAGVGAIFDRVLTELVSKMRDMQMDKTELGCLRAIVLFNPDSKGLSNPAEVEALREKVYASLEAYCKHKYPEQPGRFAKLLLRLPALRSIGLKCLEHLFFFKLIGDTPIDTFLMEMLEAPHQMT

Target: T1, Liver X Receptor α (human (endogenous in SK-N-MC)) (UniProt Q13133)
T1 sequence: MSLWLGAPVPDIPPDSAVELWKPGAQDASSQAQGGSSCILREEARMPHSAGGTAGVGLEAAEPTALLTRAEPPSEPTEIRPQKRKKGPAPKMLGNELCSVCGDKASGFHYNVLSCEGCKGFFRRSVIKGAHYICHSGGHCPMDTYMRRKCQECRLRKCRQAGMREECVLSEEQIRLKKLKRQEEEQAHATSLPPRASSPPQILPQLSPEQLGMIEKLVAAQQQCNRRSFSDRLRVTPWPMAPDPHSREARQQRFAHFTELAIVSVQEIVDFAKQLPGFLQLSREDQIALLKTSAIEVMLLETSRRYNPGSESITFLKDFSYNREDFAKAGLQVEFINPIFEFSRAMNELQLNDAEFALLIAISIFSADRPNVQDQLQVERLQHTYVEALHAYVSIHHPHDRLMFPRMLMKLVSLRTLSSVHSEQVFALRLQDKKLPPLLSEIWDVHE
Assay: co-IP; immunoprecipitation of endogenous proteins from cells with or without high glucose (D-glucose) treatment; which protein was precipitated is not given

binding: binds
Substance: retinoid X receptor α (from UniProt P19793 1-462)
